From paper PMC8938454

The chains behind the UniProt entries cited, without tags or fusion partners.
UniProt Q14204: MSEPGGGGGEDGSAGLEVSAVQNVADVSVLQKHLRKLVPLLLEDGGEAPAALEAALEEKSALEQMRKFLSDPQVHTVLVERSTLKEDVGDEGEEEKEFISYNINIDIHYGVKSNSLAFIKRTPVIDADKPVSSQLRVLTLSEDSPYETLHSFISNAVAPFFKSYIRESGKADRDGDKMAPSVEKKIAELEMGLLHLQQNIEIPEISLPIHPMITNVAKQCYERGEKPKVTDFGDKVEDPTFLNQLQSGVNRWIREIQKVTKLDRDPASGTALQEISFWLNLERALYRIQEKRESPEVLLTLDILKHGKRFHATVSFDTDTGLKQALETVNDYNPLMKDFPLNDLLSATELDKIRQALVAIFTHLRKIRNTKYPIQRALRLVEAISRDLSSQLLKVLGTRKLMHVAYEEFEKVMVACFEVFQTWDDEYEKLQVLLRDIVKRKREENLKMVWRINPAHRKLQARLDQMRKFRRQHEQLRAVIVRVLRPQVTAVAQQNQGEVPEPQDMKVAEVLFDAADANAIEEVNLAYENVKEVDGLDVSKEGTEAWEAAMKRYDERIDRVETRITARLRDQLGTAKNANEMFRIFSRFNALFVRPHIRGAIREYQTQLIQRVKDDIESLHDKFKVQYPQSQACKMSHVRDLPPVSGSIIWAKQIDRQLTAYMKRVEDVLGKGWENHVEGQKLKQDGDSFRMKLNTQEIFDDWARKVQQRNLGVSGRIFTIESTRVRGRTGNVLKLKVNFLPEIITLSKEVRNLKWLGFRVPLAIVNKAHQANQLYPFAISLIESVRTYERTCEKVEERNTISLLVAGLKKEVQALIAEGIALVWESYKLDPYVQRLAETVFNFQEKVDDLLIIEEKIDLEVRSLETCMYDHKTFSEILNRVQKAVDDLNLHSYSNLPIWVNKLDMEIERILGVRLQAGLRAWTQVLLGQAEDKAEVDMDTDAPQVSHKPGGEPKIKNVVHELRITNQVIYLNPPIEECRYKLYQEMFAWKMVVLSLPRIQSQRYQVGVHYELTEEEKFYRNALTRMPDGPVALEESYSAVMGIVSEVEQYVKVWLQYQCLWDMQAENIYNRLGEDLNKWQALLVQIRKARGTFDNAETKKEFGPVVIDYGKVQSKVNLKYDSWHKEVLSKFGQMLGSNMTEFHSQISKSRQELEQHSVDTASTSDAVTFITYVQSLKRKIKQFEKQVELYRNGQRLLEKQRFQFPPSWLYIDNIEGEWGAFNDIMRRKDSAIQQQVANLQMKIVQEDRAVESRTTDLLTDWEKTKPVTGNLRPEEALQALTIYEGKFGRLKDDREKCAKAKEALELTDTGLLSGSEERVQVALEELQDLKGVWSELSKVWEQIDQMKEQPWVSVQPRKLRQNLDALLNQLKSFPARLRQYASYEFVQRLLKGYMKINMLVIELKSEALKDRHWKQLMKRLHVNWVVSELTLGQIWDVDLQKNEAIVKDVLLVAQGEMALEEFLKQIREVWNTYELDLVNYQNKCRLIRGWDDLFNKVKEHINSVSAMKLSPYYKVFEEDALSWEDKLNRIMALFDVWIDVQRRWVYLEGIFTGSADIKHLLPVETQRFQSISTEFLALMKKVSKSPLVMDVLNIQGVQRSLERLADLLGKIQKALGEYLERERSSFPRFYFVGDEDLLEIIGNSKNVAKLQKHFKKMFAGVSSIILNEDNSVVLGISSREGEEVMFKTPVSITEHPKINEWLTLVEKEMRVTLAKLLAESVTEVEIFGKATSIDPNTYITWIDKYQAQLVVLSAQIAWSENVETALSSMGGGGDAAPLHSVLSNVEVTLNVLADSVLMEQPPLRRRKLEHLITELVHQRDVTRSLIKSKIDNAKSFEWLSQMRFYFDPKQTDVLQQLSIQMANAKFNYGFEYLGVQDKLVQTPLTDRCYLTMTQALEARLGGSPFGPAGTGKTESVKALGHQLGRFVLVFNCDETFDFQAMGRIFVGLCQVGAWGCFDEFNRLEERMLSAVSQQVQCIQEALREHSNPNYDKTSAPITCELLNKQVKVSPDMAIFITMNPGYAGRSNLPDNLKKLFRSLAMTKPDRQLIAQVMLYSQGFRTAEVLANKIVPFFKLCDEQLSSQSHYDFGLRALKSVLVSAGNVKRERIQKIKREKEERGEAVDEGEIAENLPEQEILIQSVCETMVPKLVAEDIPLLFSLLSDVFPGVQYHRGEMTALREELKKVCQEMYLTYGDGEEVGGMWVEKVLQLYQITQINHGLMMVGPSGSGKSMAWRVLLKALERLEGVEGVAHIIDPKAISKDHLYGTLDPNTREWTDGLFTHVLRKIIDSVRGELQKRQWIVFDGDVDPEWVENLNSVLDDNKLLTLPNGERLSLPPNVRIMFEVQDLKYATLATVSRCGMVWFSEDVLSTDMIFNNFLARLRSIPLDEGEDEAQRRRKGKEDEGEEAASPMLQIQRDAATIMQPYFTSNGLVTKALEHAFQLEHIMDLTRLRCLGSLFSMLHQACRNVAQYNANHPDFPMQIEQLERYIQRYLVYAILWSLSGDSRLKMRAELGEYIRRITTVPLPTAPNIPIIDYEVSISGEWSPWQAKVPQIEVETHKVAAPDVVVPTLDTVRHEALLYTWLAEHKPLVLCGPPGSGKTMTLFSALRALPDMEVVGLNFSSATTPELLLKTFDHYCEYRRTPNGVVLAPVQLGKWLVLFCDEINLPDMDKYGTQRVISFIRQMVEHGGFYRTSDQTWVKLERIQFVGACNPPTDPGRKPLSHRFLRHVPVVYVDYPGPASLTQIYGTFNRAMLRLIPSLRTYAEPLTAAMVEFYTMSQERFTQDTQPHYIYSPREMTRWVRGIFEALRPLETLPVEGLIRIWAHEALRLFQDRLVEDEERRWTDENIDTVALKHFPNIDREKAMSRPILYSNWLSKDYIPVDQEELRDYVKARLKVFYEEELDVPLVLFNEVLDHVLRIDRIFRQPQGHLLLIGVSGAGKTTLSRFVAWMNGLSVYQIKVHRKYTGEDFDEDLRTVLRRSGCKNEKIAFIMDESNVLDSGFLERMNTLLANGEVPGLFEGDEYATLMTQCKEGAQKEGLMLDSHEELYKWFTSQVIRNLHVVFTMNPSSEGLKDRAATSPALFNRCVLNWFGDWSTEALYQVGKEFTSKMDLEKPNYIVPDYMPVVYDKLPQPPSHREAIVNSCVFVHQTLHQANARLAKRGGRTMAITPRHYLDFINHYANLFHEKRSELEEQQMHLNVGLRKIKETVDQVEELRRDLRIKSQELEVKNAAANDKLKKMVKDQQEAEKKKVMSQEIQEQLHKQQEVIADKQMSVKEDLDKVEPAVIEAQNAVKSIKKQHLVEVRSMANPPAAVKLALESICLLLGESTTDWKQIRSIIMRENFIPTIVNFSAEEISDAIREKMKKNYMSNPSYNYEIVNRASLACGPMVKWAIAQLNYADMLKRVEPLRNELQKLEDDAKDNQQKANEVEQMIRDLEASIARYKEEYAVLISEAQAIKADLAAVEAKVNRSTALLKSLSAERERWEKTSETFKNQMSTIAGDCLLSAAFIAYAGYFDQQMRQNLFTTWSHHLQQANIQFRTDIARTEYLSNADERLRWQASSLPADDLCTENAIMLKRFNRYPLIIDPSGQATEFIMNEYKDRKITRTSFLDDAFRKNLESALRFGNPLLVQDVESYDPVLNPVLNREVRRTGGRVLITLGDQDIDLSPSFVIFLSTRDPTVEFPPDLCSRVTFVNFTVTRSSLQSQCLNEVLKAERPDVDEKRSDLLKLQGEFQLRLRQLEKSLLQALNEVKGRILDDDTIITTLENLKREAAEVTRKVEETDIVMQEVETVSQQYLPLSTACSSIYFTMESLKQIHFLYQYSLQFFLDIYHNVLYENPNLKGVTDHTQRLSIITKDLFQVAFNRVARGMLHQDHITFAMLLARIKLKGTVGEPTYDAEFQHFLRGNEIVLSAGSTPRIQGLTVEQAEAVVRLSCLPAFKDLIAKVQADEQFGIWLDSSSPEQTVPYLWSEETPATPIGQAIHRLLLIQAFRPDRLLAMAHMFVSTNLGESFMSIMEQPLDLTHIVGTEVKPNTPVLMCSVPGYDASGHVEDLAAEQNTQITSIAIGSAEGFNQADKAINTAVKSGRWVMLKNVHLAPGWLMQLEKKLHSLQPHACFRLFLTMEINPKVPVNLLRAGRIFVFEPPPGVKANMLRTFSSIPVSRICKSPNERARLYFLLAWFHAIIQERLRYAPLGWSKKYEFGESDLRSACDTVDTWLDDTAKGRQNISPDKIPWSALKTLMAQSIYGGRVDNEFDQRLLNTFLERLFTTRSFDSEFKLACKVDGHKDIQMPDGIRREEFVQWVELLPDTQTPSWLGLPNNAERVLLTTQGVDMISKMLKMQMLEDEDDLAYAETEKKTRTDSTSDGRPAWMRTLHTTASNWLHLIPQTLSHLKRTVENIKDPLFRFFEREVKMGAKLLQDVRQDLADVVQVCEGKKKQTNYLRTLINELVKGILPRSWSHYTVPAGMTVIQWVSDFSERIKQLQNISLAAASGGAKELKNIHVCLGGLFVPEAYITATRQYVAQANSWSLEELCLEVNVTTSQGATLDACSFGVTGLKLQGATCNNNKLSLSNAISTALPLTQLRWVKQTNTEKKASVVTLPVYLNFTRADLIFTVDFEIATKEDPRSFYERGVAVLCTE

T1: GST-tagged-RUFY3 (WT) (human) (UniProt Q7L099)
T1 sequence: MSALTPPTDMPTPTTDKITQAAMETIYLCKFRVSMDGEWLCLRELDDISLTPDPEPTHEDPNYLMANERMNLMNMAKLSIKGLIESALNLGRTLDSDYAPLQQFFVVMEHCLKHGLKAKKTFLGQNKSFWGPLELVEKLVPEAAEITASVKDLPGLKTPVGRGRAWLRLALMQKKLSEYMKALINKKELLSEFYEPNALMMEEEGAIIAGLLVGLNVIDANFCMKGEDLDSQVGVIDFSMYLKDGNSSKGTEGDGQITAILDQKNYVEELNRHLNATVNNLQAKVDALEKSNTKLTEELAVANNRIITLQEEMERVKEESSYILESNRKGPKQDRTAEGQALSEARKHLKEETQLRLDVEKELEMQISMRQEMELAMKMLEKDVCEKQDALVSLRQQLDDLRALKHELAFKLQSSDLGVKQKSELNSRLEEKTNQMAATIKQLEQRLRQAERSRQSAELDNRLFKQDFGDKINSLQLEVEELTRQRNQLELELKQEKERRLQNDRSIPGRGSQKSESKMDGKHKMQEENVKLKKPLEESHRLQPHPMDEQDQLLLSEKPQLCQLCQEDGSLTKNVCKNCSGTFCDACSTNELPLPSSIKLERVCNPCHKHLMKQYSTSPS

B1: JIP4/SPAG9 scaffolding protein, endogenous in HEK293T (protein, UniProt O60271 1-1321)
chain: MELEDGVVYQEEPGGSGAVMSERVSGLAGSIYREFERLIGRYDEEVVKELMPLVVAVLENLDSVFAQDQEHQVELELLRDDNEQLITQYEREKALRKHAEEKFIEFEDSQEQEKKDLQTRVESLESQTRQLELKAKNYADQISRLEEREAELKKEYNALHQRHTEMIHNYMEHLERTKLHQLSGSDQLESTAHSRIRKERPISLGIFPLPAGDGLLTPDAQKGGETPGSEQWKFQELSQPRSHTSLKVSNSPEPQKAVEQEDELSDVSQGGSKATTPASTANSDVATIPTDTPLKEENEGFVKVTDAPNKSEISKHIEVQVAQETRNVSTGSAENEEKSEVQAIIESTPELDMDKDLSGYKGSSTPTKGIENKAFDRNTESLFEELSSAGSGLIGDVDEGADLLGMGREVENLILENTQLLETKNALNIVKNDLIAKVDELTCEKDVLQGELEAVKQAKLKLEEKNRELEEELRKARAEAEDARQKAKDDDDSDIPTAQRKRFTRVEMARVLMERNQYKERLMELQEAVRWTEMIRASRENPAMQEKKRSSIWQFFSRLFSSSSNTTKKPEPPVNLKYNAPTSHVTPSVKKRSSTLSQLPGDKSKAFDFLSEETEASLASRREQKREQYRQVKAHVQKEDGRVQAFGWSLPQKYKQVTNGQGENKMKNLPVPVYLRPLDEKDTSMKLWCAVGVNLSGGKTRDGGSVVGASVFYKDVAGLDTEGSKQRSASQSSLDKLDQELKEQQKELKNQEELSSLVWICTSTHSATKVLIIDAVQPGNILDSFTVCNSHVLCIASVPGARETDYPAGEDLSESGQVDKASLCGSMTSNSSAETDSLLGGITVVGCSAEGVTGAATSPSTNGASPVMDKPPEMEAENSEVDENVPTAEEATEATEGNAGSAEDTVDISQTGVYTEHVFTDPLGVQIPEDLSPVYQSSNDSDAYKDQISVLPNEQDLVREEAQKMSSLLPTMWLGAQNGCLYVHSSVAQWRKCLHSIKLKDSILSIVHVKGIVLVALADGTLAIFHRGVDGQWDLSNYHLLDLGRPHHSIRCMTVVHDKVWCGYRNKIYVVQPKAMKIEKSFDAHPRKESQVRQLAWVGDGVWVSIRLDSTLRLYHAHTYQHLQDVDIEPYVSKMLGTGKLGFSFVRITALMVSCNRLWVGTGNGVIISIPLTETNKTSGVPGNRPGSVIRVYGDENSDKVTPGTFIPYCSMAHAQLCFHGHRDAVKFFVAVPGQVISPQSSSSGTDLTGDKAGPSAQEPGSQTPLKSMLVISGGEGYIDFRMGDEGGESELLGEDLPLEPSVTKAERSHLIVWQVMYGNE

target: T1, GST-tagged-RUFY3 (WT) (human); assay: affinity purification with mass spectrometry; recombinant GST-RUFY3 (GST-only as control) on glutathione resin incubated with HEK293T lysates; Coomassie bands specific for GST-RUFY3 cut out and identified; only the target purified

binding, binds:
dynactin 1/p150glued (DCTN1), endogenous in HEK293T (from UniProt Q14203-1 1-1278)
cytoplasmic dynein heavy chain (DYNC1H1/DHC), endogenous in HEK293T (from UniProt Q14204 1-4646)
B1

These are yes or no findings as the source states them, for the method shown. Binding seen in cells or lysates may run through a third protein. These calls come from enrichment with a bait or labelling near it, and not all partners need be listed. Tags and fused reporters may be left off the sequences shown.
